Data: patent US20210207126A1
These are yes or no findings as the source states them, for the method shown. Some results given as binding are weak or reduced against the parent protein; the word gives no strength.

Sequences of proteins named here, by UniProt entry; tags and fusion partners are left off. Residues count along the entry.
UniProt Q07011, residues 24-186: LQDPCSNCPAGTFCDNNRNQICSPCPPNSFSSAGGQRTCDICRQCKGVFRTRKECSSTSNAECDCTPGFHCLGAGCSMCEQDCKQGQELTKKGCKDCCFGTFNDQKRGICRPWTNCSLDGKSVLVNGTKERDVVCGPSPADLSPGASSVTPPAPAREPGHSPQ

Target: CD137 antigen used to stain yeast (human) (UniProt Q07011)
Test: flow cytometry, yeast-displayed Fab

binding: binds
B1: Fab of TY21242 displayed on yeast (Fab, V domains shown)
VH: EVQLVESGGGLVQPGGSLRLSCAASGFSLSTGGVGVGWIRQAPGKGLEWLALIDWADDKYYSPSLKSRLTISRDNSKNTLYLQLNSLRAEDTAVYYCARGGSDTVIGDWFAYWGQGTLVTVSS
VL: DIQLTQSPSSLSASVGDRVTITCRASQSIGSYLAWYQQKPGKAPKLLIYDASNLETGVPSRFSGSGSGTDFTLTISSLQPEDFATYYCQQGYYLWTFGQGTKVEIK
